The target in assay [1] is uPAR, in the breast cancer cell line MDA-MB-231 (human (endogenous in MDA-MB-231)) (UniProt Q03405). Description: co-IP; breast cancer cell line MDA-MB-231; not shown in a figure; additional specificity control.
A further assay deals with uPAR-HA (human) (UniProt Q03405). Description: co-IP; HEK293T cells co-transfected with uPAR-HA and HSP70-flag and/or MRJ-flag (also with psiMRJ, psiHSP70 or HSP70-prk5); IP with anti-HA antibody, blot with anti-flag; lysis buffer 50 mM Tris-HCl pH 7.4, 250 mM NaCl, 0.5% Triton-X 100.

Protein sequences, listed by entry. Tags and fused reporters are not part of them. Lines headed by an entry give the natural chain unless they say otherwise; changes in a name come on top. Chains listed by the source or under a name are the forms on record and can include a tag or linker. Residues count along the entry.
UniProt Q03405, residues 23-305: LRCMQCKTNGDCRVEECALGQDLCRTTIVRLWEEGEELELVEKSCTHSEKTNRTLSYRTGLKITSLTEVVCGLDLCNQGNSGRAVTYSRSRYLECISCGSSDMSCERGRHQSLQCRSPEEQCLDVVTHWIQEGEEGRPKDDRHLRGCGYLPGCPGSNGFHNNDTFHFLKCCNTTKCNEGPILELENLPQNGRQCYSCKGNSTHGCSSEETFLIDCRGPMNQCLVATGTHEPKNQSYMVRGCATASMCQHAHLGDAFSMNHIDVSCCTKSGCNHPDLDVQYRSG
MRJ-flag (O75190-2, form named): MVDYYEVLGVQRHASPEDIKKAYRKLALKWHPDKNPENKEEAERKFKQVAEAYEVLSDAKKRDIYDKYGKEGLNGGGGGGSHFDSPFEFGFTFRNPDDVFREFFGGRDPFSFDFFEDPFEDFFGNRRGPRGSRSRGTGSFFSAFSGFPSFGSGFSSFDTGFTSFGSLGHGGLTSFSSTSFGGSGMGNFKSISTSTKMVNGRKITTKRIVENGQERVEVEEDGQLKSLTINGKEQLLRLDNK

These are yes or no findings as the source states them, for the method shown. In cells and extracts the contact can be indirect. Some entries that bind do so weakly or less than the wild type.

In the case of “MRJ (DNAJB6), in the breast cancer cell line MDA-MB-231 (from UniProt O75190-2 1-241)”, the binding result in assay [1] is “binds”.
On to MRJ-flag (from UniProt O75190-2 1-241), for which the binding result with uPAR-HA (human) is “binds”.

The record behind these values is article PMC4159539.
